Data source: PubChem BioAssay AID504784 (Drosophila RNAi Screening Center, 2011)
Purpose: 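Genome-wide knock-down for genes giving too much or too little stored lipid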 (primary screen). System: Drosophila Kc167 embryonic cells. Knock-down reagent: long dsRNA against Drosophila genes, about 250 ng dsRNA per well. Duration: 4 days. Conditions: cells fed 400 µM oleic acid bound to BSA. Measured: 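Cells imaged and segmented; ratio of lipid droplet area to nuclear area, log-transformed, then normalised as a B-score over the screen; higher means more stored lipid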. Direction: droplet/nuclear area B-score: higher = more stored lipid (overstorage).
The screen tested about 17,000 reagents; below is a random part of those that have a named target and a result. 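Each column is one replicate's B-score; the combined score over replicates was not deposited, so single values may mislead.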 No sequences are given here.

predicted target	DRSC id	droplet/nuclear area B-score, replicate 1	droplet/nuclear area B-score, replicate 2	droplet/nuclear area B-score, replicate 3
CG33271	DRSC10583	3.39	2.27	
CG14668	DRSC12254	0.256	-0.536	
CG30114	DRSC05707	-0.553	-1.58	
CG11470	DRSC14313	-0.416	-1.51	
CG3078	DRSC18531	0.219	0.685	
CG13717 (retired record)	DRSC08116	-1.49	-0.898	
CG13717 (retired record)	DRSC08324	0.166	0.69	
CG13717 (retired record)	DRSC08326	2.39	2.24	
CG13717 (retired record)	DRSC21337	0.885	2.17	
CG13717 (retired record)	DRSC23087	-0.194	-0.678	
Cyp313a1	DRSC16624	0.0759	-0.503	
RpLP0-like	DRSC06424	-0.273	1.29	
Ude	DRSC15324	0.0306	0.962	
CtsB	DRSC19361	0.612	0.071	-0.355
Rab18	DRSC18702	-0.488	-0.22	-0.0401
Stt3B	DRSC16781	-1.27	0.674	
Nup160	DRSC02774	-2.17	-1.39	
SP2353	DRSC07545	0.534	0.0964	
CG2519	DRSC12312	-1.17	1.34	
CG33144	DRSC06132	0.0318	1.66	
CG33144	DRSC07024	-0.89	0.988	
Qsox2	DRSC15287	0.819	-1.6	
cv-2	DRSC03861	0.887	-0.0279	
cv-2	DRSC04261	0.0901	0.00369	
Crag	DRSC18454	-2.31	2.15	-1.46
CG12517	DRSC02173	-0.815	-1.75	
CG43338	DRSC22055	3.68	0.913	
RhoL	DRSC16824	-0.092	-0.283	
sax	DRSC07675	-0.669	-1.51	
CG44774	DRSC18342	-1.25	-0.319	
Cpr78Cb	DRSC11847	-0.624	-0.5	
CG7720	DRSC16306	-0.0432	-0.754	
CG7720	DRSC16307	-0.0717	0.886	

Already shown: an excerpt of the list.
predicted target	DRSC id	droplet/nuclear area B-score, replicate 1	droplet/nuclear area B-score, replicate 2	droplet/nuclear area B-score, replicate 3
CG14668	DRSC12254	0.256	-0.536	
CG30114	DRSC05707	-0.553	-1.58	
CG11470	DRSC14313	-0.416	-1.51	
CG3078	DRSC18531	0.219	0.685	
CG13717 (retired record)	DRSC08116	-1.49	-0.898	
CG13717 (retired record)	DRSC08324	0.166	0.69	
CG13717 (retired record)	DRSC08326	2.39	2.24	
CG13717 (retired record)	DRSC21337	0.885	2.17	

The results go on:
predicted target	DRSC id	droplet/nuclear area B-score, replicate 1	droplet/nuclear area B-score, replicate 2	droplet/nuclear area B-score, replicate 3
Fatp2	DRSC03971	1.59	0.255	
Fatp2	DRSC04178	-2.49	-0.0901	
Fatp2	DRSC04330	-0.444	0.512	
CG17564	DRSC02626	-0.333	-0.728	
Tspo	DRSC00533	-0.497	0.0442	
Mgat3	DRSC01305	2.04	0.0534	
Vha100-5	DRSC02175	-0.435	-2.89	
Blm	DRSC16911	-1.44		
CysRS	DRSC05948	0.621	0.0469	0.547
CG40282 (retired record)	DRSC07814	0.401	-1.15	
IM33	DRSC00476	-2.25	0.0884	
CG46491	DRSC06565	-0.226	0.245	
CG46491	DRSC06566	1.27	-0.776	
Sytbeta	DRSC10009	-0.368	0.217	
Sytbeta	DRSC10351	0.221	1.17	
Moca-cyp	DRSC15364	-1.55	1.01	
Nsf2	DRSC22104	0.352	-1.51	
Dh31	DRSC02196	-2.63	-1.07	
klu	DRSC11357	-1.08	-0.647	
CG11779	DRSC14384	-0.389	0.586	
igl	DRSC07631	-3.25	-0.291	
Ugt35B1	DRSC16893	-0.0218	-0.00671	
shf	DRSC18283	-1.47	-2.17	
